PubChem BioAssay AID1508597 | Cure First – 2020

Assay: 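Genes whose silencing sensitises or protects ovarian cancer cells against rucaparib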 (primary screen)
Cell system: human ovarian carcinoma lines grown from tumours: OCI-P5x (papillary serous) and OCI-C5x (clear cell)
Knock-down reagent: siRNA pool against human genes, 1.25 pmol siRNA per well
Time to read-out: 72 h or 96 h, depending on the cell culture
Challenge: rucaparib 20 µM (about IC30) or vehicle, present until read-out
Measurement: 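Luminescent ATP-based viability assay read 72 or 96 h after transfection, depending on culture, given as normalised percent viability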
Reading the numbers: viability, normalised: higher = more viable cells remaining
Active means: 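a well counts as a hit if its normalised viability is under 80 percent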
Meaning of the calls: active = viability under 80%; inactive = viability 80% or more
The deposit covers about 2,100 reagents; this is a part drawn at random. 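Calls flag viability under 80% in either arm, not effects specific to rucaparib; the reference for percent is not stated.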 Reagent sequences are not shown. Not stated in the record: the 100% reference.

Target gene | rucaparib or vehicle | cell line | technical replicate | viability, normalised (%) | Call
DMBT1 (deleted in malignant brain tumors 1) | Rucaparib | OCI-C5x (clear cell) | 1 | 32.1 | active
DMBT1 (deleted in malignant brain tumors 1) | Rucaparib | OCI-C5x (clear cell) | 2 | 44.2 | active
DMBT1 (deleted in malignant brain tumors 1) | Rucaparib | OCI-C5x (clear cell) | 3 | 30.7 | active
DMBT1 (deleted in malignant brain tumors 1) | Rucaparib | OCI-P5x (serous) | 1 | 52.5 | active
DMBT1 (deleted in malignant brain tumors 1) | Rucaparib | OCI-P5x (serous) | 2 | 47 | active
DMBT1 (deleted in malignant brain tumors 1) | Rucaparib | OCI-P5x (serous) | 3 | 59.4 | active
DMBT1 (deleted in malignant brain tumors 1) | Vehicle | OCI-C5x (clear cell) | 1 | 42.6 | active
DMBT1 (deleted in malignant brain tumors 1) | Vehicle | OCI-C5x (clear cell) | 2 | 40.3 | active
DMBT1 (deleted in malignant brain tumors 1) | Vehicle | OCI-C5x (clear cell) | 3 | 41.6 | active
DMBT1 (deleted in malignant brain tumors 1) | Vehicle | OCI-P5x (serous) | 1 | 63.6 | active
DMBT1 (deleted in malignant brain tumors 1) | Vehicle | OCI-P5x (serous) | 2 | 56 | active
DMBT1 (deleted in malignant brain tumors 1) | Vehicle | OCI-P5x (serous) | 3 | 57.7 | active
ULK2 (unc-51 like autophagy activating kinase 2) | Rucaparib | OCI-C5x (clear cell) | 1 | 33.4 | active
ULK2 (unc-51 like autophagy activating kinase 2) | Rucaparib | OCI-C5x (clear cell) | 2 | 40.1 | active
ULK2 (unc-51 like autophagy activating kinase 2) | Rucaparib | OCI-C5x (clear cell) | 3 | 43.6 | active
ULK2 (unc-51 like autophagy activating kinase 2) | Rucaparib | OCI-P5x (serous) | 1 | 79.3 | active
ULK2 (unc-51 like autophagy activating kinase 2) | Rucaparib | OCI-P5x (serous) | 2 | 67.6 | active
ULK2 (unc-51 like autophagy activating kinase 2) | Rucaparib | OCI-P5x (serous) | 3 | 73.4 | active
ULK2 (unc-51 like autophagy activating kinase 2) | Vehicle | OCI-C5x (clear cell) | 1 | 47.2 | active
ULK2 (unc-51 like autophagy activating kinase 2) | Vehicle | OCI-C5x (clear cell) | 2 | 47.3 | active
ULK2 (unc-51 like autophagy activating kinase 2) | Vehicle | OCI-C5x (clear cell) | 3 | 42.4 | active
ULK2 (unc-51 like autophagy activating kinase 2) | Vehicle | OCI-P5x (serous) | 1 | 70.1 | active
ULK2 (unc-51 like autophagy activating kinase 2) | Vehicle | OCI-P5x (serous) | 2 | 79.2 | active
ULK2 (unc-51 like autophagy activating kinase 2) | Vehicle | OCI-P5x (serous) | 3 | 81.6 | inactive
AK3 (adenylate kinase 3) | Rucaparib | OCI-C5x (clear cell) | 1 | 42.4 | active
AK3 (adenylate kinase 3) | Rucaparib | OCI-C5x (clear cell) | 2 | 53.5 | active
AK3 (adenylate kinase 3) | Rucaparib | OCI-C5x (clear cell) | 3 | 46.8 | active
AK3 (adenylate kinase 3) | Rucaparib | OCI-P5x (serous) | 1 | 49.5 | active
AK3 (adenylate kinase 3) | Rucaparib | OCI-P5x (serous) | 2 | 61.3 | active
AK3 (adenylate kinase 3) | Rucaparib | OCI-P5x (serous) | 3 | 61.2 | active
AK3 (adenylate kinase 3) | Vehicle | OCI-C5x (clear cell) | 1 | 57 | active
AK3 (adenylate kinase 3) | Vehicle | OCI-C5x (clear cell) | 2 | 43.3 | active
AK3 (adenylate kinase 3) | Vehicle | OCI-C5x (clear cell) | 3 | 47.5 | active
AK3 (adenylate kinase 3) | Vehicle | OCI-P5x (serous) | 1 | 68.7 | active
AK3 (adenylate kinase 3) | Vehicle | OCI-P5x (serous) | 2 | 74.1 | active
AK3 (adenylate kinase 3) | Vehicle | OCI-P5x (serous) | 3 | 66.6 | active
SGK1 (serum/glucocorticoid regulated kinase 1) | Rucaparib | OCI-C5x (clear cell) | 1 | 60.9 | active
SGK1 (serum/glucocorticoid regulated kinase 1) | Rucaparib | OCI-C5x (clear cell) | 2 | 53.9 | active
SGK1 (serum/glucocorticoid regulated kinase 1) | Rucaparib | OCI-C5x (clear cell) | 3 | 54.2 | active
SGK1 (serum/glucocorticoid regulated kinase 1) | Rucaparib | OCI-P5x (serous) | 1 | 106 | inactive
SGK1 (serum/glucocorticoid regulated kinase 1) | Rucaparib | OCI-P5x (serous) | 2 | 103 | inactive
SGK1 (serum/glucocorticoid regulated kinase 1) | Rucaparib | OCI-P5x (serous) | 3 | 85.7 | inactive
SGK1 (serum/glucocorticoid regulated kinase 1) | Vehicle | OCI-C5x (clear cell) | 1 | 40.5 | active
SGK1 (serum/glucocorticoid regulated kinase 1) | Vehicle | OCI-C5x (clear cell) | 2 | 49.4 | active
SGK1 (serum/glucocorticoid regulated kinase 1) | Vehicle | OCI-C5x (clear cell) | 3 | 35.5 | active
SGK1 (serum/glucocorticoid regulated kinase 1) | Vehicle | OCI-P5x (serous) | 1 | 93.5 | inactive
SGK1 (serum/glucocorticoid regulated kinase 1) | Vehicle | OCI-P5x (serous) | 2 | 85.3 | inactive
SGK1 (serum/glucocorticoid regulated kinase 1) | Vehicle | OCI-P5x (serous) | 3 | 74.1 | active

A stretch of the results above, as a working copy:
Target gene | rucaparib or vehicle | cell line | technical replicate | viability, normalised (%) | Call
AK3 (adenylate kinase 3) | Vehicle | OCI-C5x (clear cell) | 1 | 57 | active
AK3 (adenylate kinase 3) | Vehicle | OCI-C5x (clear cell) | 2 | 43.3 | active
AK3 (adenylate kinase 3) | Vehicle | OCI-C5x (clear cell) | 3 | 47.5 | active
AK3 (adenylate kinase 3) | Vehicle | OCI-P5x (serous) | 1 | 68.7 | active
AK3 (adenylate kinase 3) | Vehicle | OCI-P5x (serous) | 2 | 74.1 | active
AK3 (adenylate kinase 3) | Vehicle | OCI-P5x (serous) | 3 | 66.6 | active
SGK1 (serum/glucocorticoid regulated kinase 1) | Rucaparib | OCI-C5x (clear cell) | 1 | 60.9 | active
SGK1 (serum/glucocorticoid regulated kinase 1) | Rucaparib | OCI-C5x (clear cell) | 2 | 53.9 | active
